This note sets out measurements from PMC10404282.

Protein sequences, listed by entry. Tags and fused reporters are not part of them.
UniProt P04198: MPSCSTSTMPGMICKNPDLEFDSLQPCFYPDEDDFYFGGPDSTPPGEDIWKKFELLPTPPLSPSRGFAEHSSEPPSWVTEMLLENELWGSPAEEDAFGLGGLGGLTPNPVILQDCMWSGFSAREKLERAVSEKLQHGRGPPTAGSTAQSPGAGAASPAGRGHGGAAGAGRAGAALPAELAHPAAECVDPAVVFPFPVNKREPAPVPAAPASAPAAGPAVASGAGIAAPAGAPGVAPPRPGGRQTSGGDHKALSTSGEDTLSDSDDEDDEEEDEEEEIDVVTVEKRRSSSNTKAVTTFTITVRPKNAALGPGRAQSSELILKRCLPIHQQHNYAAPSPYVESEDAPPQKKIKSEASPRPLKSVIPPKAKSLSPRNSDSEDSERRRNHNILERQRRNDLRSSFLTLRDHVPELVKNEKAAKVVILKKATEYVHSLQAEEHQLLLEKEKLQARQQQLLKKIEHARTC
UniProt Q92560: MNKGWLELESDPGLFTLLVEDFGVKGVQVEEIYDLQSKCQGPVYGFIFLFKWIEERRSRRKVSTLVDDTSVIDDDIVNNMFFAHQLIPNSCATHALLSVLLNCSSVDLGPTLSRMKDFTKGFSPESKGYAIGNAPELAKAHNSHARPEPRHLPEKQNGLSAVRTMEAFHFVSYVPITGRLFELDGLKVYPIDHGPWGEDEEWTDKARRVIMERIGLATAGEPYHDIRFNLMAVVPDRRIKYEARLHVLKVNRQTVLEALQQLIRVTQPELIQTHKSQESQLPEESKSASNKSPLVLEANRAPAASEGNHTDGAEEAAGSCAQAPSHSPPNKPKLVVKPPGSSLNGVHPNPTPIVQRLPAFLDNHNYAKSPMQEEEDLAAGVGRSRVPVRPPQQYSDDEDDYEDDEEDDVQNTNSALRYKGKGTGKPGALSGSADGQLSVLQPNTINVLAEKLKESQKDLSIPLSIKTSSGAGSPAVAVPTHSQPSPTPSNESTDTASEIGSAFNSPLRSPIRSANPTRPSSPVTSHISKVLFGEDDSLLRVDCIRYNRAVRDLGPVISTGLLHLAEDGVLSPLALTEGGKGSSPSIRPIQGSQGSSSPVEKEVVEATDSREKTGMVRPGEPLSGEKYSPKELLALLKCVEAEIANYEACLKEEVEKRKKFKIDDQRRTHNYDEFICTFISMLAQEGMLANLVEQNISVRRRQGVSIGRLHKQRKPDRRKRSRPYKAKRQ

These are yes or no findings as the source states them, for the method shown. Binding seen in cells or lysates may run through a third protein. Some results given as binding are weak or reduced against the parent protein; the word gives no strength.

Assay [1] deals with HA-MYCN (UniProt P04198). The assay can be described thus: co-IP; Flag-BAP1 and HA-MYCN co-transfected into 293T cells; 10 uM MG132 for 10 h before harvest; EBC lysis buffer (50 mM Tris pH 8.0, 120 mM NaCl, 0.5% NP-40), antibody-conjugated beads 4-5 h at 4 C, washed with NETN buffer; immunoblot.
The target of assay [2] is HA-MYCN (UniProt P04198). The assay can be described thus: co-IP; endogenous BAP1 with MYCN in 293T cells transfected with the indicated constructs; 10 uM MG132 for 10 h before harvest; EBC lysis buffer, washed with NETN buffer; immunoblot.

For “Flag-BAP1 (BRCA1-associated protein-1) (from UniProt Q92560 1-729) (enzyme)”, the binding result with HA-MYCN [1] is on record as “binds”.
As to “endogenous BAP1 (from UniProt Q92560 1-729) (enzyme)”, the binding entry with HA-MYCN [2] was “binds”.
